Experimental data as given in PubChem BioAssay AID504467 (National Center for Advancing Translational Sciences (NCATS), 2011).
“And” between values parts separate entries of the source, which are not always exact repeats. Equal entries are not always repeated. Hit rate of the full screen: of about 330,000 compounds, about 7,700 (2.3%) were called active. The shares of active, inactive and inconclusive entries below differ from those in the screen. Calls follow the shape of the dose curve; as a rule, active = well fitted inhibition curve with a large enough effect; inconclusive = small, poorly fitted or top-dose-only effect, or effect the other way; inactive = flat fitted curve, though single readings scatter. Potencies beside an inconclusive call are fits to weak or partial responses and may not hold up.

test: qHTS screen for small molecules that inhibit ELG1-dependent DNA repair in human embryonic kidney (HEK293T) cells expressing luciferase-tagged ELG1; settings: HEK293T ELG1-luciferase reporter, luminescence, 16 h, DNA damage induced by 5-fluorouridine; activity change, negative = inhibition: at 46.1 µM (top of the series); also: nearly all actives have a fitted effect of over 55% in size
Summary of the method: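 Step one: seed 2,000 cells per well. Step two: pin-transfer compound or DMSO alongside 5-fluorouridine. Step three: incubate 16 hr, 37 °C, 5% CO2. Step four: add ONE-Glo, wait 30 min, read luminescence.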
% is scaled to controls: 0 for no effect and ±100 for the full control effect; potency is read from the fitted curve at half-maximal effect.

| Structure (SMILES) | Potency | activity change, negative = inhibition |
| --- | --- | --- |
| Cc1ccc(C(=O)CCC(=O)Nc2cc(C)ccn2)cc1 | inconclusive: 14.6 µM [activator, partial curve, poor fit] | – |
| O=C(CN1CC(=O)Oc2ccccc21)OCC(=O)c1cccc(Br)c1 | inactive | – |
| COc1c(C(=O)Nc2ccc(Br)cn2)ccc2ccccc12 | inconclusive: 14.6 µM [activator, partial curve] | – |
| O=[N+]([O-])c1ccccc1S(=O)(=O)Nc1ccc(-c2ccc(N3CCCC3)nn2)cc1 | inconclusive: 4.61 µM [activator, partial curve] | – |
| CC(=O)Nc1ccc(S(=O)(=O)NCCC(=O)N2CCN(C(c3ccccc3)c3ccccc3)CC2)cc1 | inactive | – |
| COc1ccc2c(=O)c3ccccc3oc2c1 | inconclusive: 2.06 µM [activator, partial curve, poor fit] | – |
| CC1CCCN(C2=C(NS(=O)(=O)c3ccc(Cl)cc3)C(=O)c3ccccc3C2=O)C1 (stereo not drawn) | inactive | – |
| O=C(C[n+]1ccccc1)Nc1ccccc1Br | inactive | – |
| COc1cccc(/C=C2/SC(=S)N(CCC(=O)N3CCOCC3)C2=O)c1 | inactive | – |
| CC(C)CNC(=O)CN(C1CCCCC1)S(C)(=O)=O | inactive | – |
| COc1ccc(N2CC(C(=O)N[C@@H](CC(C)C)C(=O)NC3CCCCC3)CC2=O)cc1 (stereo partly drawn) | inactive | – |
| CCCCCCCCNc1ncnc2ccccc12 | inconclusive: 29.1 µM [activator, single point] | – |
| Cc1cc2c(cc1S(=O)(=O)N1CCN(c3ccccc3)CC1)OCC(=O)N2 | inconclusive: 32.6 µM [activator, partial curve, poor fit] | – |
| O=C(CSc1cccc[n+]1[O-])Nc1cc2c(cc1Cl)C(=O)c1ccccc1C2=O | inconclusive: 14.6 µM [activator, partial curve] | – |
| Cc1ccc2c3c(cccc13)-c1ccccc1C2=O | inconclusive: 20.6 µM [activator, single point] | – |
| Cc1cc(Sc2ncnc(N)c2[N+](=O)[O-])ncn1 | inconclusive: 29.1 µM [activator, single point] | – |
| NC(=O)[C@H]1CC2(CC(c3cccc(NC(=O)COc4ccc(Cl)cc4)c3)=NO2)CN1C(=O)C(c1ccccc1)c1ccccc1 (stereo partly drawn) | inconclusive: 20.6 µM [inhibitor, single point] | – |
| CC(C)C(=O)Nc1cccc(C(=O)Nc2ccc3c(c2)OCO3)c1 | inconclusive: 0.651 µM [activator, full curve] | – |
| O=C(N/N=C/c1cc2c(cc1Br)OCO2)c1ccccn1 | inconclusive: 10.3 µM [activator, partial curve] | – |
| Cc1ccc2[nH]cc(S(=O)(=O)c3ccc(C(C)C)cc3)c(=O)c2c1 | inconclusive: 29.1 µM [inhibitor, single point] | – |
| CC(O)[C@@]1(O)CC[C@H]2[C@@H]3CC[C@H]4C[C@@H](O)CC[C@]4(C)C3=CC[C@@]21C (stereo partly drawn) | inactive | – |
| COc1cccc(CC(NC(C)=O)C(=O)NC2CCN(c3nc(C)cc(C)c3C#N)CC2)c1OC (stereo not drawn) | active: 2.82 µM | – |
| COc1cc(-c2csc(C)n2)ccc1O | inactive | – |

| Structure (SMILES) | Potency | activity change, negative = inhibition |
| --- | --- | --- |
| OC[C@@H]1[C@@H](c2ccccc2)C(c2cccc(Cl)c2)=NN1c1ccccc1 | inconclusive: 25.9 µM [activator, partial curve, poor fit] | – |
| C/C(=N\N=C(N)N)c1cccc([N+](=O)[O-])c1 | inactive | – |
| COC(=O)[C@@H]1[C@@H](C)OC(=O)N[C@H]1c1ccccc1 | inactive | – |
| Cc1cc(NC(=O)CC2CCCC2)ccc1Br | inconclusive: 20.6 µM [activator, partial curve] | – |
| Cc1ccccc1OCC(=O)Nc1ccccc1C(=O)NC1CC1 | active: 5.17 µM | – |
| Cc1nnc(SCC(=O)N2CCN(S(=O)(=O)c3ccccc3)CC2)n1Cc1ccccc1 | inconclusive: 35.5 µM [inhibitor, single point] | – |
| NC(=O)c1c(NC(=O)c2ccccc2)sc2c1CCN(Cc1ccccc1)C2 | inconclusive: 18.3 µM [activator, single point] | – |
| COc1ccc(Nc2nc(N3CCN(S(=O)(=O)N(C)C)CC3)nc3ccccc23)cc1 | inconclusive: 32.6 µM [inhibitor, single point] | – |
| COC(=O)CSCC(=O)Nc1nnc(-c2cccc(C)c2)s1 | inactive | – |
| O=C(NCc1ccco1)c1cccn2c(=O)c3c4c(sc3nc12)CCCC4 | inconclusive: 23.1 µM [inhibitor, single point] | – |
| COc1ccc(N2C3=C(CC4=C2CC(C)(C)CC4=O)C(=O)CC(C)(C)C3)cc1 | inconclusive: 18.4 µM [inhibitor, single point] | – |
| COc1ccc(Br)cc1CN1CCN(C(=O)c2ccc(OC)c(OC)c2)CC1 | inconclusive: 32.6 µM [inhibitor, partial curve, poor fit] | – |
| Cc1noc(/C=C/N(C)C)c1S(=O)(=O)N1CCCC(C(=O)NC(C)c2ccccc2)C1 (stereo not drawn) | inactive | – |
| Cc1nn(Cc2ccccc2)c(Cl)c1C(=O)OCc1nnc(-c2ccccc2)o1 | inconclusive: 18.4 µM [inhibitor, single point] | – |
| CC(c1ccccc1)N(CCC(c1ccccc1)C1CCOC(C)(C)C1)C(=O)c1ccco1 (stereo not drawn) | active: 23.1 µM | – |
| COc1ccc(Cl)cc1N(CC(=O)Nc1ccc2c(c1)OCCO2)S(C)(=O)=O | inconclusive: 5.62 µM [activator, partial curve, poor fit] | – |
| N#Cc1c(-c2ccccc2)cc(-c2cccs2)nc1SCC(=O)O | inactive | – |
| Cc1sc2nc(C3CC3)nc(NCCNS(=O)(=O)c3ccccc3)c2c1C | inconclusive: 18.4 µM [inhibitor, single point] | – |
| CCn1nnnc1SCC(=O)Nc1ccc2c(c1)OCCO2 | inconclusive: 14.6 µM [activator, partial curve] | – |
| O=C(COC(=O)Cc1c(F)cccc1Cl)NNC(=O)c1ccccc1 | inconclusive: 20.6 µM [activator, partial curve, poor fit] | – |
| COC(=O)C1=CN(Cc2ccc(OC)c(OC)c2)C=C(C(=O)OC)C1c1ccccc1F | inconclusive: 14.1 µM [inhibitor, single point] | – |
| CN1CCN(S(=O)(=O)c2cc(C(F)(F)F)ccc2Cl)CC1 | inactive | – |
| COc1ccc(C2SCCN2S(=O)(=O)c2ccccc2)cc1OC (stereo not drawn) | inconclusive: 29.1 µM [inhibitor, single point] | – |

| Structure (SMILES) | Potency | activity change, negative = inhibition |
| --- | --- | --- |
| CCOc1ccc(-c2nnc(NC3=NCCCCC3)o2)cc1 | inconclusive: 2.59 µM [activator, partial curve] | – |
| O=C(NCc1cccnc1)c1sc2ccccc2c1Cl | inconclusive: 32.6 µM [activator, partial curve, poor fit] | – |
| CCN(CC)c1ccc(/C=N/NC(=O)c2cccc(N3CCCC3=O)c2)cc1 | inconclusive: 23.1 µM [activator, partial curve, poor fit] | – |
| S=C(Nc1ccccc1)c1ccccn1 | inconclusive: 16.4 µM [activator, partial curve] and inconclusive: 14.6 µM [activator, partial curve] | – |
| CCn1nc(C)cc1C(=O)N1CCCC(Nc2ccc(C(C)C)cc2)C1 (stereo not drawn) | inconclusive: 29.1 µM [inhibitor, single point] | – |
| O=C(Cn1c(=O)cnc2ccccc21)NNC(=O)c1ccccc1Cl | inconclusive: 13 µM [activator, single point] | – |
| CCOC(=O)C1(Cc2cccc(OC)c2)CCCN(S(=O)(=O)c2cccnc2)C1 (stereo not drawn) | – | inconclusive: 18.3% [activator] |
| CC(=O)c1nn(-c2cccc(Br)c2)cc1C(=O)c1cccc2ccccc12 | inconclusive: 7.31 µM [inhibitor, partial curve, poor fit] | – |
| Cc1nccc(-c2ccc(-n3cnc4ccccc43)cc2)n1 | active: 10.3 µM | – |
| CS(=O)(=O)Nc1cccc(C2=NN(S(=O)(=O)c3ccccc3)C(c3cccs3)C2)c1 (stereo not drawn) | inconclusive: 14.6 µM [inhibitor, partial curve, poor fit] | – |
| COc1ccc(C(=O)Nc2nc3cc4c(cc3s2)OCO4)c(OC)c1 | inconclusive: 1.83 µM [activator, full curve] | – |
| Cc1cccc(C(=O)Nc2ccc(N3CCN(S(C)(=O)=O)CC3)cc2)c1 | inconclusive: 5.8 µM [activator, full curve] | – |
| CCOC(=O)N1CCN(C(=O)C2CCN(C(=O)c3ccc([N+](=O)[O-])cc3)CC2)CC1 | inactive | – |
| COc1cccc(/C=N/NC(=O)c2ccc(=O)[nH]n2)c1O | inactive | – |
| CCOC(=O)C1CCCN(S(=O)(=O)c2ccc(S(=O)(=O)N(CC)CC)cc2)C1 (stereo not drawn) | inconclusive: 1.16 µM [inhibitor, full curve] | – |
| O=C(O)c1ccccc1C(=O)Nc1nc(-c2ccccc2)cs1 | inactive | – |
| CC(C)CNC(=S)N(CCCN(C)C)Cc1cc2cc3c(cc2[nH]c1=O)OCCO3 | inactive | – |
| COc1ccc(NC(=O)CSc2ccc(NC(C)=O)cc2)cc1S(=O)(=O)N1CCOCC1 | inactive | – |
| C#CCOCCOCCOCCNc1nc(N2CCN(C(=O)CCCCCCCCCCNC(=O)Cn3cc(CCCCCN)nn3)CC2)nc(N2CCN(C(=O)CCCCCCCCCCNC(=O)Cn3cc(CCCCCN)nn3)CC2)n1 | inactive | – |
| Cc1ccc(OC(=O)C2CCN(C(=O)c3ccccc3C)CC2)c(Br)c1 | inconclusive: 20.6 µM [activator, single point] | – |
| Cc1ccc(NNC(=O)C2CCC2)cc1C | inconclusive: 20.6 µM [inhibitor, single point] | – |
| Cc1ccccc1OCC(=O)OCC(=O)Nc1cc(S(=O)(=O)N2CCCCC2)ccc1Cl | inactive | – |
